This is one part of the list. Values are raw readings; no control value is given beside them.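 In the initial screen, polymyxin B was used at a concentration that permeabilizes Salmonella's outer membrane but not its inner membrane. Maximum growth was set by DMSO wells with or without polymyxin B. Since plates varied, data were ranked per plate, and compounds giving the lowest OD600 advanced as hits.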
Tested on: Salmonella enterica serovar Typhimurium SL1344
Test: bacterial growth OD600 after 18 h with compound and polymyxin B; higher = more bacterial growth (less inhibition)
Conditions: 50 µM, Mueller-Hinton broth

Row | Compound | bacterial growth OD600 (polymyxin B 0.75 µg/mL) | bacterial growth OD600 (polymyxin B 1 µg/mL)
1 | CCOC(=O)CC1COCCN1C(=O)c1ccc(-n2cc(NC(=O)c3ccc(C)cc3C)cn2)cc1 (stereo unspecified) | 0.723 | 
2 | OC(Cc1ccccc1)c1ccc2c(c1)CN(C1CCCC1)CCO2 (stereo unspecified) | 0.75 | 
3 | CCOC(=O)C1(CCOc2ccccc2)CCCN(C(=O)CCN2CCCCO2)C1 (stereo unspecified) |  | 0.703
4 | Cc1c(CC(=O)NCc2ccon2)c2c(n1CC(C)C)CC(C)(C)CC2=O |  | 0.849
5 | COCCNC(=O)c1ccc(OC)cc1OC1CCN(Cc2cc3ccccc3o2)CC1 |  | 1.21
6 | COc1ccccc1CCNC(=O)Cc1ccc(N2CCC(NC(C)Cc3ccsc3)CC2)cc1 (stereo unspecified) | 0.843 | 
7 | CS(=O)(=O)NCc1cccnc1Oc1ccccc1F | 0.815 | 
8 | CC(C)S(=O)(=O)N1CCC(C2CCN(Cc3ccc(Cl)cc3)C2)CC1 (stereo unspecified) | 0.799 | 
9 | CSc1ccc(CC2(CCC(=O)NCc3cnn(Cc4ccccc4)c3)CCC(=O)N2)cc1 (stereo unspecified) | 0.885 | 
10 | CCN(CCO)C(=O)C1CCN(c2nc(-c3ccccc3)nc3c2CCC3)CC1 | 0.869 | 
11 | Cc1c(CC(=O)N[C@H]2CCCCNC2=O)c2c(n1CC(C)C)CC(C)(C)CC2=O |  | 1.03
12 | COCC1CCCN(C(=O)c2cc(COc3cccc(C(C)=O)c3)on2)C1 (stereo unspecified) |  | 1.04
13 | CCC1CN(CCNC(=O)CCc2ccc3c(c2)OCO3)Cc2cc(OC)ccc2O1 (stereo unspecified) | 0.847 | 
14 | CCC1CN(Cc2ccc(C(=O)OC)cc2)Cc2cc(OC)ccc2O1 (stereo unspecified) | 0.001 | 
15 | O=C(Nc1ccc(Oc2cccnc2)cc1)C1CCN(Cc2ccccc2)CC1 |  | 0.795
16 | CN(C(=O)c1ccco1)C(Cc1ccc(F)cc1F)C1CCN(Cc2cc(F)ccc2F)CC1 (stereo unspecified) | 0.587 | 

Three entries from above, arranged by SMILES length, smallest number first.
Row | Compound | bacterial growth OD600 (polymyxin B 0.75 µg/mL) | bacterial growth OD600 (polymyxin B 1 µg/mL)
7 | CS(=O)(=O)NCc1cccnc1Oc1ccccc1F | 0.815 | 
15 | O=C(Nc1ccc(Oc2cccnc2)cc1)C1CCN(Cc2ccccc2)CC1 |  | 0.795
10 | CCN(CCO)C(=O)C1CCN(c2nc(-c3ccccc3)nc3c2CCC3)CC1 | 0.869 | 

(list continues)

Row | Compound | bacterial growth OD600 (polymyxin B 0.75 µg/mL) | bacterial growth OD600 (polymyxin B 1 µg/mL)
17 | COc1ccc(C(=O)N2CCCC2)c(OC2CCN(C3CCCCCC3)CC2)c1 | 0.831 | 
18 | Cc1ccc(Oc2ncccc2CNC2CCCC2)cn1 |  | 0.91
19 | CC(C)Oc1ccc(CCNCc2c(C(=O)N3CCCC3)nc3sccn23)cc1 | 0.726 | 
20 | CCC(=O)N[C@@H]1c2ccccc2C2(CCN(C(=O)c3ccc(C)s3)CC2)[C@H]1OCc1cccnc1 | 0.774 | 
21 | CCC1CN(C(=O)c2cccc(Cn3cccn3)c2)Cc2ccc(Cl)cc2O1 (stereo unspecified) | 0.01 | 
22 | CN(Cc1nccs1)c1ccc(-c2nc(-c3ccccc3F)no2)cn1 |  | 0.634
23 | Cc1nc(N2CCCC2C(=O)NCCC2COc3ccccc3O2)nc2cc(S(C)(=O)=O)ccc12 (stereo unspecified) | 0.848 | 
24 | CCCn1c(C)c(CC(=O)NCc2ncn[nH]2)c2c1CC(C)(C)CC2=O | 0.962 | 
25 | Cc1ccccc1-c1noc(-c2ccc(NCCCO)nc2)n1 | 0.741 | 
26 | c1ccc(-c2nc(CNCc3cccnc3N3CCOCC3)co2)cc1 | 0.784 | 
27 | COc1ccc(CN2C(=O)O[C@@H]3CN(c4ncccn4)C[C@@H]32)cc1OC | 0.983 | 
28 | COc1ccc(-c2nc(CN3CCCCC3CO)c(C)o2)c(C)c1C (stereo unspecified) | 0.739 | 
29 | O=C1CCC(CCC(=O)N2CCCC(C(=O)c3cccnc3)C2)(Cc2cccc3ccccc23)N1 (stereo unspecified) | 0.816 | 
30 | CC1CCN(Cc2nnnn2CC(=O)NCC2COc3ccccc3O2)CC1 (stereo unspecified) | 0.541 | 
31 | COCCCN1C(=O)CC(CC(=O)N(C)Cc2ccc3nccnc3c2)(c2ccccc2Cl)C1=O (stereo unspecified) | 0.834 | 
